Data as given in PubChem BioAssay AID1259331 (Drosophila RNAi Screening Center, 2017).
Test: 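Fly transmembrane-protein genes that affect zinc toxicity in cultured cells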 (primary screen). Cell system: Drosophila S2R+ cells. Knock-down reagent: long dsRNA against Drosophila genes. Timing: 5 days (4 days knock-down, then 1 day zinc). Challenge: zinc chloride at 15 mM final level for 1 day. Read-out: 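Luminescent ATP assay standing in for viability; Z score is the mean over three replicate plates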. Reading the numbers: mean Z score: higher = more ATP than other wells, better survival under zinc; ATP luminescence: higher = more ATP, more viable cells. Hit rule: 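Hit when the absolute Z score is greater than 1.5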. Calls: active = hit, ATP up or down; inactive = not a hit.
This is an unselected part of about 3,100 deposited reagents. 126 of them (4.1%) count as active. 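Calls are per reagent; zinc was so toxic that few knock-downs lowered ATP further, so most hits raise ATP.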 Raw values are not corrected between plates. Reagents against one gene are numbered here. A plus sign joins genes that one reagent is predicted to hit. No sequences are given here. Not given: the amount of reagent.

| gene | reagent | mean Z score | ATP luminescence, replicate 1 | ATP luminescence, replicate 2 | activity call |
| --- | --- | --- | --- | --- | --- |
| Syx16 | 1 | -0.212 | 43485 | 44891 | inactive |
| Syx16 | 2 | 0.0756 | 60495 | 59432 | inactive |
| Or85d | 1 | -0.121 | 35393 | 53675 | inactive |
| Or85d | 2 | -0.181 | 72277 | 47683 | inactive |
| CG9760 | 1 | 2.13 | 1.15e5 | 90305 | active |
| CG9760 | 2 | -0.489 | 51424 | 56345 | inactive |
| CG31358 + CG42505 + CG42504 | 1 | -0.339 | 41685 | 43588 | inactive |
| CG31358 + CG42505 + CG42504 | 2 | -0.294 | 46640 | 39696 | inactive |
| CG31358 + CG42505 + CG42504 | 3 | -0.155 | 37049 | 55962 | inactive |
| COX4 | 1 | -0.207 | 54420 | 52116 | inactive |
| COX4 | 2 | -0.645 | 57151 | 42645 | inactive |
| CG8860 | 1 | -0.108 | 83940 | 67114 | inactive |
| CG8860 | 2 | -0.141 | 54099 | 53293 | inactive |
| VhaM9.7-a | 1 | -0.287 | 69300 | 55710 | inactive |
| VhaM9.7-a | 2 | 0.582 | 69070 | 71694 | inactive |
| mthl14 | 1 | -0.188 | 44085 | 41119 | inactive |
| mthl14 | 2 | -0.0492 | 60430 | 56239 | inactive |
| Gr22b | 1 | -0.283 | 39113 | 40980 | inactive |
| Alg3 | 1 | -0.352 | 28132 | 29119 | inactive |
| Ipo9 | 1 | -0.538 | 38650 | 50618 | inactive |
| Ir76b | 1 | -0.554 | 68469 | 57374 | inactive |
| Ir76b | 2 | 0.149 | 67372 | 58421 | inactive |
| Orct | 1 | -0.339 | 40536 | 43674 | inactive |
| Orct | 2 | -0.595 | 38856 | 49006 | inactive |
| CG13795 | 1 | -0.384 | 44788 | 40039 | inactive |
| CG13795 | 2 | -0.231 | 50258 | 61232 | inactive |
| CG14744 | 1 | -0.282 | 70527 | 66205 | inactive |
| Oatp74D | 1 | -0.541 | 56328 | 57832 | inactive |
| Oatp74D | 2 | -0.0648 | 34313 | 28125 | inactive |

Copied from the list:
For “mean Z score”, Or85d #2 is entered as -0.181
Entry of Orct #2 under “activity call”: inactive
Result of CG31358 + CG42505 + CG42504 #3 under “ATP luminescence, replicate 1”: 37049

Additional records follow.
| gene | reagent | mean Z score | ATP luminescence, replicate 1 | ATP luminescence, replicate 2 | activity call |
| --- | --- | --- | --- | --- | --- |
| Ir7c | 1 | -0.37 | 57117 | 62776 | inactive |
| Ir7c | 2 | -0.811 | 48663 | 49315 | inactive |
| CG32054 | 1 | -0.165 | 75398 | 56413 | inactive |
| CG32054 | 2 | -0.0338 | 61867 | 59860 | inactive |
| Or7a | 1 | -0.356 | 65142 | 55059 | inactive |
| CG31998 | 1 | -0.319 | 41633 | 43266 | inactive |
| CG31998 | 2 | 1.01 | 79858 | 85672 | inactive |
| Nup93-1 | 1 | 5.67 | 1.11e5 | 1.14e5 | active |
| Nup93-1 | 2 | 5.53 | 1.31e5 | 1.37e5 | active |
| CG9743 | 1 | 0.453 | 74809 | 72277 | inactive |
| CG9743 | 2 | 0.148 | 66754 | 60529 | inactive |
| syd | 1 | -0.0958 | 28605 | 29448 | inactive |
| syd | 2 | -0.407 | 50395 | 51166 | inactive |
| ppk9 | 1 | 0.868 | 58681 | 41479 | inactive |
| ppk9 | 2 | -0.119 | 71162 | 58728 | inactive |
| IA-2 | 1 | 3.22 | 95314 | 1.09e5 | active |
| IA-2 | 2 | -0.0787 | 55007 | 52898 | inactive |
| IA-2 | 3 | 0.178 | 50052 | 47025 | inactive |
| IA-2 | 4 | 1.86 | 63633 | 75501 | active |
